Results taken from patent publication US8119645B2, “Fungicide hydroximoyl-tetrazole derivatives” (Bayer Cropscience AG, priority 2006, dated 2012).
Some entries share one result that the patent states for a list of compounds.

Columns and labels:
Plasmopara viticola = assay: In vivo test on Plasmopara viticola (vine downy mildew), vine plants; conditions: dose of 500 ppm, preventive spray 24 hours before contamination, grading 7 to 8 days after contamination
Peronospora parasitica = assay: In vivo test on Peronospora parasitica (crucifer downy mildew), cabbage plants; conditions: dose of 500 ppm, preventive spray 24 hours before contamination, grading 5 days after contamination

Compound: Cc1nnnn1/C(=N/OCc1csc(NC(=O)C(C)(C)C)n1)c1ccsc1 [Compound 18, O-(2-tert-Butylcarbonylamino-1,3-thiazol-4-yl)methyl-(thien-3-yl)-(5-methyltetrazol-1-yl)methanone oxime]
- good protection (Plasmopara viticola): at least 70%
- good protection (Peronospora parasitica): at least 70%
